{"source": "the supplement of paper PMC12819154", "about": "“High-throughput peptide-centric local stability assay extends protein–ligand identification to membrane proteins, tissues and bacteria” (Nature Structural & Molecular Biology, 2025)", "note": "Some of the results follow. Small differences around the control level are noise."}
{"compound": "CN[C@@H]1C[C@H]2O[C@@](C)([C@@H]1OC)n1c3ccccc3c3c4c(c5c6ccccc6n2c5c31)C(=O)NC4 [staurosporine]", "assay": "log2 fold change of tryptic peptide abundance, ligand vs vehicle (limited proteolysis) (log2 ratio); higher = more trypsin-susceptible (destabilized)", "details": "ligand concentration: 20 uM; sample: K562 cleared lysate; digestion: 4 min, 22 C (HT-PELSA RT4min, Orbitrap Astral)"}
{"target": "MAD2L2 (peptide sequence: TMTSDILK, peptide start residue: 191) (UniProt Q9UI95)", "log2 fold change": 0.0776}
{"target": "MAT2B (peptide sequence: ESLWPFLIDKR, peptide start residue: 317) (UniProt Q9NZL9)", "log2 fold change": -0.63}
{"target": "NDUFA13 (peptide sequence: IALLPLLQAETDRR, peptide start residue: 69) (UniProt Q9P0J0)", "log2 fold change": -0.268}
{"target": "CDC23 (peptide sequence: MLVALGECYEK, peptide start residue: 435) (UniProt Q9UJX2)", "log2 fold change": -0.133}
{"target": "RABL2A (peptide sequence: NLSTWYTELR, peptide start residue: 111) (UniProt Q9UBK7)", "log2 fold change": 0.4}
{"target": "ARMCX3 (peptide sequence: ILNTRDPIVK, peptide start residue: 171) (UniProt Q9UH62)", "log2 fold change": 1.02}
{"target": "GMIP (peptide sequence: KLVFQGDEVLR, peptide start residue: 298) (UniProt Q9P107)", "log2 fold change": 0.452}
{"target": "UniProt Q9P2H5 (peptide sequence: SELAGFYPR, peptide start residue: 423)", "log2 fold change": -0.395}
{"target": "FAM135A (peptide sequence: SVVPECHLNDSK, peptide start residue: 858) (UniProt Q9P2D6)", "log2 fold change": -0.336}
{"target": "UniProt Q9P203 (peptide sequence: TGEEITDR, peptide start residue: 298)", "log2 fold change": 0.376}
{"target": "NARF (peptide sequence: GTHSLDIK, peptide start residue: 448) (UniProt Q9UHQ1)", "log2 fold change": 0.16}
{"target": "UniProt Q9NZQ9 (peptide sequence: FGYHFTQQGPR, peptide start residue: 315)", "log2 fold change": -0.0525}
{"target": "PISD (peptide sequence: VVLTGDWK, peptide start residue: 305) (UniProt Q9UG56)", "log2 fold change": 0.278}
{"target": "MRPL27 (peptide sequence: KMEGHYVHAGNIIATQR, peptide start residue: 55) (UniProt Q9P0M9)", "log2 fold change": 0.313}
{"target": "STX18 (peptide sequence: VSQSPSKDSEENPATEERPEK, peptide start residue: 186) (UniProt Q9P2W9)", "log2 fold change": -0.607}
{"target": "UniProt Q9UK76 (peptide sequence: MASNIFGTPEENQASWAK, peptide start residue: 47)", "log2 fold change": -0.112}
{"target": "RPUSD1 (peptide sequence: VTISHAIGR, peptide start residue: 112) (UniProt Q9UJJ7)", "log2 fold change": 0.391}
{"target": "PSMC3IP (peptide sequence: AATNHVTPEEKEQVYR, peptide start residue: 149) (UniProt Q9P2W1)", "log2 fold change": -0.194}
{"target": "CFDP1 (peptide sequence: EDELWASFLNDVGPK, peptide start residue: 110) (UniProt Q9UEE9)", "log2 fold change": -0.294}
{"target": "SIX4 (peptide sequence: TIWDGEETVYCFKEK, peptide start residue: 219) (UniProt Q9UIU6)", "log2 fold change": 0.456}
{"target": "UniProt Q9UBC1 (peptide sequence: AQEALGDREPKPTR, peptide start residue: 265)", "log2 fold change": 0.464}
{"target": "XPR1 (peptide sequence: KPVFHLSHEER, peptide start residue: 112) (UniProt Q9UBH6)", "log2 fold change": 0.368}
{"target": "LEF1 (peptide sequence: QEHPHTDSDLMHVKPQHEQR, peptide start residue: 270) (UniProt Q9UJU2)", "log2 fold change": -0.455}
{"target": "STOML2 (peptide sequence: ESAINVAEGKK, peptide start residue: 212) (UniProt Q9UJZ1)", "log2 fold change": 0.407}
{"target": "METTL1 (peptide sequence: NVAGAEAPPPQKR, peptide start residue: 7) (UniProt Q9UBP6)", "log2 fold change": -0.0838}
{"target": "UniProt Q9P0J6 (peptide sequence: CKDCYLVK, peptide start residue: 76)", "log2 fold change": -0.261}
{"target": "LSM7 (peptide sequence: KKESILDLSK, peptide start residue: 8) (UniProt Q9UK45)", "log2 fold change": 0.293}
{"target": "THYN1 (peptide sequence: NMVLFTR, peptide start residue: 194) (UniProt Q9P016)", "log2 fold change": 0.416}
{"target": "MLX (peptide sequence: KQEEEVSTLRK, peptide start residue: 193) (UniProt Q9UH92)", "log2 fold change": 0.0763}
{"target": "NAGK (peptide sequence: EGFLLALTQGR, peptide start residue: 281) (UniProt Q9UJ70)", "log2 fold change": 0.563}
{"target": "ZC3H7B (peptide sequence: ASSSMGAPR, peptide start residue: 674) (UniProt Q9UGR2)", "log2 fold change": -0.138}
{"target": "UniProt Q9UDV7 (peptide sequence: SKPYSCPECGK, peptide start residue: 515)", "log2 fold change": 0.686}
{"target": "UBQLN2 (peptide sequence: NPEISHLLNNPDIMR, peptide start residue: 218) (UniProt Q9UHD9)", "log2 fold change": 0.0245}
{"target": "COQ3 (peptide sequence: SFDPVLDKR, peptide start residue: 189) (UniProt Q9NZJ6)", "log2 fold change": 0.0422}
{"target": "STMN3 (peptide sequence: EAHLAALR, peptide start residue: 148) (UniProt Q9NZ72)", "log2 fold change": -0.304}
{"target": "MTRF1L (peptide sequence: VRRPELLAVIK, peptide start residue: 59) (UniProt Q9UGC7)", "log2 fold change": 0.304}
{"target": "HSPBP1 (peptide sequence: GQREEVEQMK, peptide start residue: 85) (UniProt Q9NZL4)", "log2 fold change": 0.803}
